Cell viability data for 90 compounds are collected here from the supplement of paper PMC3682954.

Broadly, the cell viability is a read-out of living cells in per cent, often relative to untreated cells.

Values joined by “and” are separate entries in the source; they are usually repeats but may differ in a detail not shown here. Equal entries are not always repeated. Structures can show the parent of a compound that is named as a salt. ± gives the standard deviation of the averaged measurements. This is one part of the list. Repeats are few or missing, and single values can be far off.

The test system of the assay is RAW 264.7. Description: cell viability (MTT) relative to vehicle control; higher = more viable cells. As to conditions: stimulus: HMGB1 5 ug/ml, 18 h.
[1] abbreviates: compound concentration: 1 ug/ml.

As for `Cc1ccc(=O)n(-c2ccccc2)c1` [Pirfenidone], the cell viability (compound concentration: 3 uM) came to 100%.
Take `Nc1c2ccccc2nc2ccccc12`: under “compound concentration: 3 uM”, the cell viability was 94.1%.
Consider `Cc1cn([C@@H]2O[C@H](CO)[C@@H](O)[C@H]2O)c(=O)nc1N` [5-Methylcytidine], for which, under setting [1], the cell viability amounted to 96.9%.
For `CN1CCC(=C2c3ccccc3Sc3ccccc32)CC1` [Pimethixene maleate], for the setting “compound concentration: 3 uM”, the cell viability amounted to 100%.
`CN1CCC(=C2c3ccccc3Sc3ccccc32)CC1`: where the note is “compound concentration: 3 uM”, the cell viability came out at 113%.
Take `CC(=O)/C=C1/C(=O)N(C)c2ccccc21` [Supercinnamaldehyde]: where the note is “compound concentration: 3 uM”, the cell viability came out at 91.6%.
In the case of `Cc1ccc2oc(-c3ccccc3)cc(=O)c2c1` [6-Methylflavone], the cell viability under setting [1] was determined as 104%.
On to `N[C@@H](Cc1cc(I)c(Oc2ccc(O)c(I)c2)c(I)c1)C(=O)O`, for which, where the note is “compound concentration: 3 uM”, the cell viability worked out at 101%.
Regarding `N[C@@H](Cc1cc(I)c(Oc2ccc(O)c(I)c2)c(I)c1)C(=O)O` [3,3',5-Triiodo-L-thyronine], under setting [1], the cell viability was 93.8%.
On to `N[C@@H](Cc1cc(I)c(Oc2ccc(O)c(I)c2)c(I)c1)C(=O)O` [Liothyronine], for which the cell viability (compound concentration: 3 uM) was determined as 88.8%.
As for `N[C@@H](Cc1cc(I)c(Oc2ccc(O)c(I)c2)c(I)c1)C(=O)O` [LIOTHYRONINE (L- isomer) SODIUM], the cell viability (compound concentration: 3 uM) worked out at 108%.
Regarding `CN1CCCN=C1/C=C/c1cccc(O)c1` [Oxantel pamoate], the cell viability (compound concentration: 3 uM) is 114%.
`CN1CCCN=C1/C=C/c1cccc(O)c1`: the cell viability (compound concentration: 3 uM) came out at 98.7%.
For `CC(N)CCCC(C)(C)O` (stereo not given) [Heptaminol hydrochloride], for the setting “compound concentration: 3 uM”, the cell viability stood at 94.6%.
For the compound `CC(N)CCCC(C)(C)O` (stereo not given), the cell viability (compound concentration: 3 uM) was 108%.
As to `CC(C)(C)c1ccc(S(=O)(=O)/C=C/C#N)cc1`, the cell viability (compound concentration: 3 uM) came to 93.6%.
Regarding `O=Nc1ccc2oc(=O)ccc2c1` [6-Nitroso-1,2-benzopyrone], the cell viability (compound concentration: 3 uM) stood at 109%.
Regarding `O=C(O)c1cc(=O)c2c(Cl)cc(Cl)cc2[nH]1` [5,7-Dichlorokynurenic acid], the cell viability (compound concentration: 3 uM) turned out to be 96.7%.
With `O=c1cc(-c2ccccc2O)oc2ccc(O)cc12` [2',6-Dihydroxyflavone], the cell viability under setting [1] was determined as 95.3%.
For the compound `Cc1cc(O)cc(C)c1Cl`, the cell viability (compound concentration: 3 uM) was determined as 111%.
In the case of `CC(=O)N(c1onc(C)c1C)S(=O)(=O)c1ccc(N)cc1`, the cell viability (compound concentration: 3 uM) is 111%.
For the compound `CC1CN([C@H]2C[C@H](O)[C@@H](CO)O2)C(=O)NC1=O` (stereo not given in full) [5,6-Dihydrothymidine], the cell viability under setting [1] amounted to 93.8%.
Turning to `C[C@@H](O[C@H]1OCCN(Cc2n[nH]c(=O)[nH]2)[C@H]1c1ccc(F)cc1)c1cc(C(F)(F)F)cc(C(F)(F)F)c1` [Aprepitant], for the setting “compound concentration: 3 uM”, the cell viability was 112%.
On to `Oc1cccc(O)c1`, for which the cell viability (compound concentration: 3 uM) came to 97.8%.
The same measure, in the same setting: for `Cc1cc2c(s1)Nc1ccccc1N=C2N1CCN(C)CC1` [Olanzapine] the value was 96.4 ± 12%.
Consider `Cc1cc2c(s1)Nc1ccccc1N=C2N1CCN(C)CC1`, for which the cell viability (compound concentration: 3 uM) turned out to be 101 ± 13%.
Still for that read-out and setting: then `O=C1c2ccccc2C(=O)C1c1ccc(Br)cc1`, with 113%.
With `NC(=O)CC[C@H](N)C(=O)O` [L-Glutamine], the cell viability (compound concentration: 3 uM) came out at 112%.
Same read-out and setting: then `CC=CC1=C(C(=O)O)N2C(=O)[C@@H](NC(=O)[C@H](N)c3ccc(O)cc3)[C@H]2SC1`, with 111%.
Regarding `Nc1nc(OCC2CCCCC2)c2[nH]cnc2n1`, the cell viability (compound concentration: 3 uM) came out at 103%.
In the case of `COc1ccccc1-c1oc2ccccc2c(=O)c1O` [3-Hydroxy-2'-methoxyflavone], the cell viability under setting [1] turned out to be 99.4%.
Take `CC(C)OC(=O)C(C)(C)Oc1ccc(C(=O)c2ccc(Cl)cc2)cc1` [Fenofibrate]: the cell viability (compound concentration: 3 uM) worked out at 104 ± 2.3%.
Same read-out and setting: for `CC(C)OC(=O)C(C)(C)Oc1ccc(C(=O)c2ccc(Cl)cc2)cc1` the value was 114%.
`Cc1c(O)c(=O)n(-c2ccccc2)n1C` [Antipyrine, 4-hydroxy]: the cell viability (compound concentration: 3 uM) was found to be 81.2%.
Turning to `C=C1CC/C=C(\C)CC[C@@H]2[C@@H]1CC2(C)C` [(-)-trans-Caryophyllene], the cell viability under setting [1] was 98%.
`C[C@H]1[C@H](C)CC[C@]2(C(=O)O[C@@H]3O[C@H](CO[C@@H]4O[C@H](CO)[C@@H](O[C@@H]5O[C@H](C)[C@H](O)[C@@H](O)[C@H]5O)[C@H](O)[C@H]4O)[C@@H](O)[C@H](O)[C@H]3O)CC[C@]3(C)C(=CC[C@@H]4[C@@]5(C)C[C@@H](O)[C@H](O)[C@@](C)(CO)[C@@H]5CC[C@]43C)[C@H]12` [Asiaticoside]: under setting [1], the cell viability came to 101%.
As to `CCOc1ccc2nc(S(N)(=O)=O)sc2c1`, where the note is “compound concentration: 3 uM”, the cell viability is 109%.
Take `c1coc(CNc2ncnc3[nH]cnc23)c1` [Kinetin hydrochloride]: under setting [1], the cell viability was 109%.
`CN1CCCN(C(c2ccccc2)c2ccc(Cl)cc2)CC1` (stereo not given) [Homochlorcyclizine dihydrochloride]: the cell viability (compound concentration: 3 uM) came out at 104%.
`C[C@@H]1C[C@H]2[C@@H]3CCC4=CC(=O)C=C[C@]4(C)[C@@]3(Cl)[C@@H](O)C[C@]2(C)[C@@]1(OC(=O)c1ccco1)C(=O)CCl` [Mometasone furoate]: the cell viability (compound concentration: 3 uM) amounted to 124%.
Consider `CCOC(=O)c1cnc2c(cnn2CC)c1NN=C(C)C` [Etazolate hydrochloride], for which the cell viability (compound concentration: 3 uM) stood at 92.2%.
With `CCOC(=O)c1cnc2c(cnn2CC)c1NN=C(C)C` [Etazolate], the cell viability (compound concentration: 3 uM) was determined as 90.5%.
Same read-out and setting: for `Nc1ncnc2c1ncn2C1OC(COP(=O)(O)O)C(O)C1O` (stereo not given) [Adenosine 5'-monophosphate monohydrate] the value was 92.2%.
On to `CCCCc1ccc2[nH]c(NC(=O)OC)nc2c1` [Parbendazole], for which, under “compound concentration: 3 uM”, the cell viability is 80.2%.
For `COc1cc2ncnc(Nc3cccc(Cl)c3)c2cc1OC` [Tyrphostin AG 1478], under “compound concentration: 3 uM”, the cell viability was found to be 117%.
On to `O=c1oc2cc(O)ccc2s1`, for which the cell viability (compound concentration: 3 uM) was 115%.
In the case of `CCc1cccc(CC)c1NC(=O)CN(CC(=O)O)CC(=O)O` [Etifenin], the cell viability (compound concentration: 3 uM) came to 89.5%.
Take `CN/C(=N\CCSCc1nc[nH]c1C)NC#N`: the cell viability (compound concentration: 3 uM) was found to be 103%.
On the same count and under the same terms, for `CN/C(=N\CCSCc1nc[nH]c1C)NC#N` [Cimetidine] the value was 96.3 ± 4.1%; for `c1ccc(C2CN3CCSC3=N2)cc1` (single isomer, unassigned; (-)) [(-)-Tetramisole hydrochloride], 97.9%; for `C/C(=C\C(=O)OCCCCCCCCC(=O)O)C[C@@H]1OC[C@H](C[C@@H]2O[C@H]2[C@@H](C)[C@H](C)O)[C@@H](O)[C@H]1O`, 108 ± 1.6%.
On the same count and under the same terms, for `N#C/C(=C\c1ccc(O)c(O)c1)C(=O)NCCCc1ccccc1` [Tyrphostin AG 555] the value was 98.9%.
Take `O=C(O)c1cc(/N=N/c2ccc(S(=O)(=O)Nc3ccccn3)cc2)ccc1O` [Sulfasalazine]: the cell viability (compound concentration: 3 uM) is 96.2 ± 1.7%.
In the case of `O=C(O)c1cc(/N=N/c2ccc(S(=O)(=O)Nc3ccccn3)cc2)ccc1O`, under “compound concentration: 3 uM”, the cell viability came to 100 ± 9.6%.
Take `Cc1cn([C@H]2CC[C@@H](CO)O2)c(=O)[nH]c1=O` [2',3'-Dideoxythymidine]: the cell viability under setting [1] came out at 99.6%.
Consider `O=C(O)c1cc2cc(Cc3cccnc3)ccc2o1` [Furegrelate sodium], for which the cell viability (compound concentration: 3 uM) was determined as 109%.
Consider `Cc1ncc([N+](=O)[O-])n1CC(C)O` (stereo not given), for which, for the setting “compound concentration: 3 uM”, the cell viability is 108%.
With `Cc1ncc([N+](=O)[O-])n1CC(C)O` (stereo not given) [1-(2-Methyl-5-nitro-imidazol-1-yl)-propan-2-ol], the cell viability (compound concentration: 3 uM) was 99.9%.
The same measure, in the same setting: then `Cc1ncc([N+](=O)[O-])n1CC(C)O` (stereo not given) [Secnidazole], with 100 ± 14%.
The same measure, in the same setting: for `C/C=C(/C(=C/C)c1ccc(O)cc1)c1ccc(O)cc1` the value was 98.8%; for `C/C=C(/C(=C/C)c1ccc(O)cc1)c1ccc(O)cc1` [Dienestrol], 101%.
Turning to `OC1(c2ccc(Cl)cc2)CCN(Cc2c[nH]c3ccccc23)CC1`, the cell viability (compound concentration: 3 uM) is 98.4%.
On to `O=C(O)c1ccccc1OP(=O)(O)O`, for which, where the note is “compound concentration: 3 uM”, the cell viability stood at 107%.
Consider `O=C(O)c1ccccc1OP(=O)(O)O` [Fosfosal], for which the cell viability (compound concentration: 3 uM) came to 95.4%.
Still for that read-out and setting: then `COc1ccccc1N1CCN(CCN(C(=O)c2ccc(I)cc2)c2ccccn2)CC1` [p-MPPI hydrochloride], with 115%; and `CC1=C(/C=C/C(C)=C/C=C/C(C)=C/CO)C(C)(C)CCC1`, with 113%.
Turning to `CC1=C(/C=C/C(C)=C/C=C/C(C)=C/CO)C(C)(C)CCC1` [Retinol; Vitamin A, synthetic, 95.%], the cell viability under setting [1] came to 112%.
Take `Nc1ncnc2c1ncn2[C@@H]1O[C@H](COP(=O)(O)OP(=O)(O)OP(=O)(O)OP(=O)(O)OC[C@@H]2O[C@H](n3cnc4c(N)ncnc43)C(O)[C@@H]2O)[C@H](O)C1O` (stereo not given in full) [P1,P4-Di(adenosine-5')tetraphosphate triammonium]: the cell viability (compound concentration: 3 uM) came to 99.8%.
Take `Nc1cc(N2CCCCC2)nc(N)[n+]1[O-]` [Minoxidil]: the cell viability (compound concentration: 3 uM) was 100 ± 15%.
With `Nc1cc(N2CCCCC2)nc(N)[n+]1[O-]`, for the setting “compound concentration: 3 uM”, the cell viability stood at 108%.
In the case of `C=C(C)[C@H]1CC=C(C)C(=O)C1` [D(+)-Carvone], the cell viability under setting [1] was 106%.
Turning to `COc1ccc2cc([C@H](C)C(=O)O)ccc2c1`, the cell viability (compound concentration: 3 uM) was 98.7%.
The same measure, in the same setting: then `COc1ccc2cc([C@H](C)C(=O)O)ccc2c1` [(-)-Naproxen sodium], with 105%; and `COc1ccc2cc([C@H](C)C(=O)O)ccc2c1` [Naproxen], with 99.5 ± 10%.
Regarding `O=C(O)c1cc(=O)[nH]c(=O)[nH]1`, the cell viability (compound concentration: 3 uM) was 100%.
In the case of `CC(=O)NCCCCCC(=O)O`, the cell viability (compound concentration: 3 uM) stood at 113%.
Same read-out and setting: then `O=c1n(CCCN2CCN(c3cccc(Cl)c3)CC2)nc2ccccn12`, with 100 ± 3.6%.
The same measure, in the same setting: then `O=c1n(CCCN2CCN(c3cccc(Cl)c3)CC2)nc2ccccn12` [Trazodone hydrochloride], with 106.97 ± 0.092%.
In the case of `C=C[C@H]1CN2CC[C@H]1C[C@H]2[C@H](O)c1ccnc2ccc(OC)cc12` [Quinine], the cell viability under setting [1] is 85.2%.
Turning to `C=C[C@H]1CN2CC[C@H]1C[C@H]2[C@H](O)c1ccnc2ccc(OC)cc12`, for the setting “compound concentration: 3 uM”, the cell viability was 99.5% and 110%.
Same read-out and setting: then `C=C[C@H]1CN2CC[C@H]1C[C@H]2[C@H](O)c1ccnc2ccc(OC)cc12` [Quinine sulfate], with 101%; and `CC1(C)S[C@@H]2[C@H](NC(=O)[C@H](N)c3ccccc3)C(=O)N2[C@H]1C(=O)O`, with 102%.
Take `CC1(C)S[C@@H]2[C@H](NC(=O)[C@H](N)c3ccccc3)C(=O)N2[C@H]1C(=O)O` [Ampicillin]: under “compound concentration: 3 uM”, the cell viability was found to be 91.8%.
`CC1(C)S[C@@H]2[C@H](NC(=O)[C@H](N)c3ccccc3)C(=O)N2[C@H]1C(=O)O` [Ampicillin trihydrate]: the cell viability (compound concentration: 3 uM) was 85.1%.
With `CN(C)C(=O)n1nnnc1Cc1ccc(-c2ccccc2)cc1`, the cell viability (compound concentration: 3 uM) was 44.5%.
On to `CCC(NC(C)C)C(O)c1ccc(O)c2[nH]c(=O)ccc12` (stereo not given) [Procaterol], for which, for the setting “compound concentration: 3 uM”, the cell viability was 105%.
In the case of `Oc1ccc(-c2nc(-c3ccc(F)cc3)c(-c3ccncc3)[nH]2)cc1`, where the note is “compound concentration: 3 uM”, the cell viability is 99.7%.
Same read-out and setting: for `NC(=O)c1cnccn1` the value was 99.1%; for `NC(=O)c1cnccn1` [Pyrazinamide], 87.8%; for `NC(=O)c1cnccn1` [Pyrazinecarboxamide], 107%.
